Results from one PubChem assay

From PubChem BioAssay record AID977624 (Broad Institute, 2014).

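GFP-tagged normal-ribosome E. coli mixed with an RFP-tagged h34 humanized strain, with green signal taken as growth after 24 hours.
The value is the change in activity at the highest dose tested; more negative means stronger inhibition.
Active requires GFP to fall at least twice as much as RFP with growth loss below a set limit; inconclusive means no clear call; everything else is inactive.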

Only part of the assay is shown, chiefly results filed as inconclusive.

structure	condition	activity change	outcome
C[C@H](CO)N1C[C@H](C)[C@H](CN(C)C(=O)Nc2ccc3c(c2)OCO3)Oc2c(NC(=O)Nc3ccccc3)cccc2C1=O	at 26 µM (top of the series)	13.3	inconclusive
O=C(NCCc1ccc(Cl)cc1)c1ccc2nc[nH]c2c1	at 50 µM (top of the series)	-0.326	inactive
Cc1sc2ncn(CC(=O)Nc3ccccc3F)c(=O)c2c1-c1ccccc1	at 50 µM (top of the series)	4.514	inconclusive
COc1ccc(OCCC(=O)OCC(=O)NCCC2=CCCCC2)cc1	at 50 µM (top of the series)	33.98	inconclusive
Cc1cc(NC(=O)c2sc(Nc3ccc(F)c(Cl)c3)nc2N)no1	at 50 µM (top of the series)	29.02	inconclusive
CCOC(=O)c1ccc(NC(=O)c2ccc(OC(C)C)c(OC)c2)cc1	at 50 µM (top of the series)	1.112	inactive
C[C@@H]1NS(=O)(=O)c2c(F)cccc2O[C@@H]1c1ccccc1	at 50 µM (top of the series)	-23.91	inconclusive
CSc1ccccc1NC(=O)CN(c1cccc(C)c1)S(C)(=O)=O	at 50 µM (top of the series)	-4.417	inactive
CSc1nc2ccc(NS(=O)(=O)c3ccc([N+](=O)[O-])cc3)cc2s1	at 50 µM (top of the series)	-6.266	inconclusive
Nc1[nH]c(C(=O)c2ccccc2)c(-c2ccc3c(c2)OCO3)c1C(=O)NCCc1c[nH]c2ccccc12	at 50 µM (top of the series)	-4.778	inactive
Cc1ccsc1C(=O)N1CCCC(C(=O)c2cc(F)ccc2F)C1 (stereo not shown)	at 50 µM (top of the series)	1.656	inconclusive
N#Cc1ccc(C(=O)Nc2ccn(-c3ccccc3)n2)cc1	at 50 µM (top of the series)	-5.808	inconclusive
CS(=O)(=O)NCCSc1cc(C(F)(F)F)nc2ccccc12	at 50 µM (top of the series)	13.98	inconclusive
COc1cc(-c2ccc(N3C(c4ccsc4)=Cc4ccc(F)cc4C3c3c[nH]c4ccc(C#N)cc34)cc2)cc(OC)c1OC (stereo not shown)	at 50 µM (top of the series)	55.35	inconclusive
Cn1c(=O)n(C)c2cc([N+](=O)[O-])c(N3CCN(C(=O)c4cccc(F)c4)CC3)cc21	at 50 µM (top of the series)	-6.444	inactive
COc1cc2[nH]c(=S)nc(NCCc3ccc(C)cc3)c2cc1OC	at 50 µM (top of the series)	14.11	inactive
Cc1cc(C)cc(NC(=O)c2cccc(NC(=O)C3C4CC5OC(=O)C3C5C4)c2)c1 (stereo not shown)	at 50 µM (top of the series)	18.49	inconclusive
Cc1ccnc(NS(=O)(=O)c2ccc(NC(=O)c3ccc4c(c3)OCCO4)cc2)n1	at 50 µM (top of the series)	31.07	inconclusive
CCCN1CCN(C(=O)c2ccc(Sc3ccc(C)cc3)c(NC(C)=O)c2)CC1	at 50 µM (top of the series)	25.32	inconclusive
C=CCN(c1ccccc1)S(=O)(=O)c1ccc(Cl)c(C(=O)OCC(=O)NCCCN2CCCC2=O)c1	at 50 µM (top of the series)	7.09	inactive
C[C@@H]1CN([C@@H](C)CO)C(=O)CCCn2nncc2CO[C@H]1CN(C)C(=O)Nc1cccc(C(F)(F)F)c1	at 50 µM (top of the series)	-0.555	inconclusive
COc1cccc(NS(=O)(=O)c2ccc(-c3coc(C)n3)cc2)c1	at 50 µM (top of the series)	-25.81	inconclusive
Cc1ccc(S(=O)(=O)NC(C)C(=O)NCc2ccc(Cl)cc2)cc1 (stereo not shown)	at 50 µM (top of the series)	24.31	inconclusive
CC(C)Cc1csc(NC(=O)c2ccc(Br)cc2)c1C(=O)O	at 50 µM (top of the series)	-43.28	inconclusive
CSc1ccccc1OCc1cc(C(=O)N[C@H]2CCCCNC2=O)no1	at 50 µM (top of the series)	-2.731	inconclusive
CCCCNC(=O)c1c(N)[nH]c(C(=O)c2ccccc2)c1-c1ccccn1	at 50 µM (top of the series)	-4.066	inactive
C[C@@H]1CN([C@@H](C)CO)C(=O)CCCn2nncc2CO[C@H]1CN(C)C(=O)Nc1ccc(C(F)(F)F)cc1	at 50 µM (top of the series)	-27.21	inconclusive
O=C(O)CSc1nc2ccccc2n1C1CCCCC1	at 50 µM (top of the series)	-5.35	inconclusive
CC(CCc1ccccc1)NC(=O)CCC1CCCC1 (stereo not shown)	at 50 µM (top of the series)	13.88	inconclusive
Cc1ccccc1S(=O)(=O)NC(=O)C1(C)CCN1C(=O)C1(c2ccc(Cl)cc2)CC1 (stereo not shown)	at 50 µM (top of the series)	0.008	inconclusive
O=C(O)c1cc2ccc3ccccc3c2[nH]1	at 50 µM (top of the series)	-19.02	inconclusive
Cc1cc(C(N)=O)nn1-c1c(Cl)cc(Cl)cc1Cl	at 50 µM (top of the series)	14.85	inconclusive
CCN(C(=O)COC(=O)c1cc(-c2cccs2)nc2ccccc12)C1CCS(=O)(=O)C1 (stereo not shown)	at 50 µM (top of the series)	-12.04	inconclusive
COc1ccc(N(CCC(=O)O)S(=O)(=O)c2ccc(C)cc2C)cc1	at 50 µM (top of the series)	10.88	inconclusive
COc1ccc2oc(C(=O)NCc3ccco3)c(C)c2c1	at 50 µM (top of the series)	-24.02	inconclusive
CN(C)S(=O)(=O)c1cccc(C(=O)Nc2ccc(C(=O)Nc3cccc(S(N)(=O)=O)c3)cc2)c1	at 50 µM (top of the series)	8.133	inconclusive
O=C(Nc1cccc(S(=O)(=O)N2CCCCC2)c1)c1ccc(Cl)nc1	at 50 µM (top of the series)	-0.371	inactive
O=C(c1ccccc1)C1Oc2ccccc2C2CC(c3cccs3)=NN12 (stereo not shown)	at 50 µM (top of the series)	16.3	inconclusive
O=[N+]([O-])c1cccc(COc2ccc(CN3CCOCC3)cc2)c1	at 50 µM (top of the series)	26.88	inconclusive
CCc1ccc2nc(SCC(=O)Nc3ccccc3N3CCOCC3)c(C#N)cc2c1	at 50 µM (top of the series)	56.72	inconclusive
Cc1ccc2oc(C(=O)N(C)Cc3ccc(C)o3)c(C)c2c1	at 50 µM (top of the series)	13.11	inconclusive
CN1C(=O)c2ccccc2OC1(C)Cc1ccccc1 (stereo not shown)	at 50 µM (top of the series)	-0.164	inconclusive
O=C(c1ccccc1)c1ccc2nc(-c3ccc(NC(=O)c4ccccc4Br)cc3)[nH]c2c1	at 50 µM (top of the series)	9.25	inconclusive
COc1ccc(-c2cc(C(=O)N3CCc4ccccc4C3)no2)cc1	at 50 µM (top of the series)	-0.904	inconclusive
CCOC(=O)c1cc2sccc2n1CCCN1C(=O)c2ccccc2C1=O	at 50 µM (top of the series)	-31.95	inconclusive
COc1cccc(NC(=O)c2ccc(NCCCN3CC(C)CC(C)C3)c([N+](=O)[O-])c2)c1 (stereo not shown)	at 50 µM (top of the series)	11.33	inconclusive

The last 4 entries again:

Result for O=C(c1ccccc1)c1ccc2nc(-c3ccc(NC(=O)c4ccccc4Br)cc3)[nH]c2c1 [at 50 µM (top of the series)] was activity change 9.25 (inconclusive).
Result for COc1ccc(-c2cc(C(=O)N3CCc4ccccc4C3)no2)cc1 [at 50 µM (top of the series)] was activity change -0.904 (inconclusive).
Result for CCOC(=O)c1cc2sccc2n1CCCN1C(=O)c2ccccc2C1=O [at 50 µM (top of the series)] was activity change -31.95 (inconclusive).
Result for COc1cccc(NC(=O)c2ccc(NCCCN3CC(C)CC(C)C3)c([N+](=O)[O-])c2)c1 (stereo not shown) [at 50 µM (top of the series)] was activity change 11.33 (inconclusive).